Data: publication PMC7835958
No constants are given. Whether binding was seen depends on the method and setting. Some binding calls cover weakened binding; strength is not graded here.

By UniProt entry, the sequences of proteins in these tests, tags left out. Residues count along the entry.
UniProt Q7Z4V5, residues 469-549: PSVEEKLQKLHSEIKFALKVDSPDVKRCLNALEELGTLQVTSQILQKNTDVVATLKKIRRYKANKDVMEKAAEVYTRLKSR

Biological target: HRP-2_(469–549) (human) (UniProt Q7Z4V5)
Test: NMR titration; chemical shift perturbations in the HRP-2 IBD backbone induced by binding of JPO2 (1–130) or POGZ (1117–1410); Figure S2; both purified

binding	Binder
binds	POGZ (amino acids 1117–1410) (domain or fragment, UniProt Q7Z3K3 1117-1410) LPLSMIVAIDEISLFLDTEVLSSDDRKENALQTVGTGEPWCDVVLAILADGTVLPTLVFYRGQMDQPANMPDSILLEAKESGYSDDEIMELWSTRVWQKHTACQRSKGMLVMDCHRTHLSEEVLAMLSASSTLPAVVPAGCSSKIQPLDVCIKRTVKNFLHKKWKEQAREMADTACDSDVLLQLVLVWLGEVLGVIGDCPELVQRSFLVASVLPGPDGNINSPTRNADMQEELIASLEEQLKLSGEHSESSTPRPRSSPEETIEPESLHQLFEGESETESFYGFEEADLDLMEI
binds	JPO2 (amino acids 1–130) (domain or fragment, UniProt Q96GN5 1-130) MELATRYQIPKEVADIFNAPSDDEEFVGFRDDVPMETLSSEESCDSFDSLESGKQQDVRFHSKYFTEELRRIFIEDTDSETEDFAGFTQSDLNGKTNPEVMVVESDLSDDGKASLVSEEEEDEEEDKATP
